In PMC6168554:
These are yes or no findings as the source states them, for the method shown. Binding seen in cells or lysates may run through a third protein. A result given as binding can be weak or reduced; the word gives no strength. Where a sequence is shown, tags or fusion partners need not be part of it.

By UniProt entry, the sequences of proteins in these tests, tags left out. Where a name states a change or a piece, a line headed by the entry shows the natural chain unless it says otherwise.
UniProt Q5NC57: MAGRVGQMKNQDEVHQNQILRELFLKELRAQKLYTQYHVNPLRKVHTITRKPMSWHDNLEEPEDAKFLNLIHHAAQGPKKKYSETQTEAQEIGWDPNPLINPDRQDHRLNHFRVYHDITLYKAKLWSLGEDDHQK

Target: N-flag-FAM183b (4 exons) (mouse) (UniProt Q5NC57)
Experiment: co-IP; CHO cells co-transfected with Flag-FAM183b and NUP93-Myc; IP with anti-Myc 9E10 or anti-Flag M2 and Protein G beads; washes with 500 mM NaCl, 0.05% NP-40; blots with anti-Myc-POD and anti-Flag-POD

B1: C-terminally Myc-tagged NUP93 (protein, UniProt Q8BJ71 1-819)
chain: MDTEGFGELLQQAEQLAAETEGISELPHVERNLQEIQQAGERLRSRTLTRTSQETADVKASVLLGSRGLDISHISQRLESLSAATTFEPLEPVKDTDIQGFLKNEKDNALLSAIEESRKRTFGMAEEYHRESMLVEWEQVKQRILHTLLASGEDALDFTQESEPSYIGDVNPPGRSSLDSIEMAYARQIYIYNEKIVSGHLQPNLVDLCASVAELDDKSISDMWAMVKQMTDVVLTPATDALKSRSSVEVRMDFVKQALGYLEQSYKNYTLVTVFGNLHQAQLGGVPGTYQLVRSFLNIKLPAPSPGLQDGEVEGHPVWALIYYCMRCGDLLAASQVVSRAQHQLGEFKTWFQEYMNSKDRRLSPATENKLRLHYRRALRNNTDPYKRAVYCIIGRCDITDNQSEVADKTEDYLWLKLNQVCFDDDGTSSPQDRLTLSQFQKQLLEDYGESHFTVNQQPFLYFQVLFLTAQFEAAIAFLFRMERLRCHAVHVALVLFELKLLLKSSGQSAQLLSHEPGDPPCMRRLNFVRLLMLYTRKFESTDPREALQYFYFLRDEKDSQGENMFLRCVSELVIESREFDMILGKLENDGSRKPGVIDKFTSDTKPIINKVASVAENKGLFEEAAKLYDLAKNADKVLELMNKLLSPVVPQISAPQSNKERLKNMALSIAERYRAQGISANKFVDSTFYLLLDLITFFDEYHSGHIDRAFDIIDRLKLVPLNQESVEERVAAFRNFSDEIRHNLSEVLLATMNILFTQFKRLKGTSPSSATRPQRVIEDRDSQLRSQARALITFAGMIPYRTSGDTNARLVQMEVLMN
binding: binds
